In PubChem BioAssay AID186 (DTP/NCI, 2004):
Values are animals surviving of animals treated; these mice carried no tumour. Survivors were counted at the toxicity check, usually on the fifth day, unless a day is given; later deaths do not show. Schedules are NCI's codes, read here as Q, the interval in days (D) or hours (H), X, the number of doses. Some structures stand for samples that the source files as different forms (salt, stereo form or complex); doses refer to the form tested. Some doses were run more than once; the results are listed from low to high.

Test system: B6D2F1 mice, nontumored toxicity test, survival
Assay: NCI In Vivo Anticancer Drug Screen. Data for tumor model Nontumored Animals (Toxicity Test) in B6D2F1 (BDF1) mice

SMILES: O=C1c2ccccc2C(=O)c2c(NCCNCCO)ccc(NCCNCCO)c21
- survivor count (dose: 32.0 mg/kg/injection, schedule: Q01DX001 (ip), vehicle: acid diluted with saline): 8 of 8
- survivor count (dose: 32.0 mg/kg/injection, schedule: Q01DX001 (ip), vehicle: saline): 8 of 8
- survivor count (dose: 32.0 mg/kg/injection, schedule: Q01DX001 (oral), vehicle: saline): 8 of 8
- survivor count (dose: 32.0 mg/kg/injection, schedule: Q01DX001 (sc), vehicle: acid diluted with saline): 8 of 8
- survivor count (dose: 32.0 mg/kg/injection, schedule: Q01DX005 (ip), vehicle: acid diluted with saline): 8 of 8
- survivor count (dose: 32.0 mg/kg/injection, schedule: Q01DX005 (ip), vehicle: saline): 8 of 8
- survivor count (dose: 32.0 mg/kg/injection, schedule: Q01DX005 (iv), vehicle: saline): 7 of 8
- survivor count (dose: 32.0 mg/kg/injection, schedule: Q01DX009 (ip), vehicle: acid diluted with saline): 8 of 8
- survivor count (dose: 32.0 mg/kg/injection, schedule: Q01DX009 (ip), vehicle: saline): 8 of 8
- survivor count (dose: 32.0 mg/kg/injection, schedule: Q01DX009 (oral), vehicle: acid diluted with saline): 8 of 8
- survivor count (dose: 32.0 mg/kg/injection, schedule: Q01DX009 (oral), vehicle: saline): 8 of 8
- survivor count (dose: 32.0 mg/kg/injection, schedule: Q01DX009 (sc), vehicle: acid diluted with saline): 8 of 8
- survivor count (dose: 32.0 mg/kg/injection, schedule: Q01DX009 (sc), vehicle: saline): 8 of 8
- survivor count (dose: 32.0 mg/kg/injection, schedule: Q03HX008 (ip), vehicle: acid diluted with saline): 2 of 8
- survivor count (dose: 32.0 mg/kg/injection, schedule: Q03HX008 (ip), vehicle: saline): 2 of 8
- survivor count (dose: 32.0 mg/kg/injection, schedule: Q03HX016 (ip), vehicle: acid diluted with saline): 3 of 8
- survivor count (dose: 32.0 mg/kg/injection, schedule: Q03HX024 (ip), vehicle: acid diluted with saline): 5 of 8
- survivor count (dose: 32.0 mg/kg/injection, schedule: Q04DX003 (ip), vehicle: acid diluted with saline): 8 of 8
- survivor count (dose: 32.0 mg/kg/injection, schedule: Q04DX003 (ip), vehicle: saline): 8 of 8
- survivor count (dose: 32.0 mg/kg/injection, schedule: Q08DX002 (ip), vehicle: acid diluted with saline): 8 of 8
- survivor count (dose: 32.0 mg/kg/injection, schedule: Q08DX002 (ip), vehicle: saline): 8 of 8
- survivor count (dose: 50.0 mg/kg/injection, schedule: Q01DX009 (ip), vehicle: saline): 10 of 10 and 9 of 9
- survivor count (dose: 64.0 mg/kg/injection, schedule: Q01DX001 (ip), vehicle: acid diluted with saline): 8 of 8
- survivor count (dose: 64.0 mg/kg/injection, schedule: Q01DX001 (ip), vehicle: saline): 7 of 8
- survivor count (dose: 64.0 mg/kg/injection, schedule: Q01DX001 (oral), vehicle: acid diluted with saline): 8 of 8
- survivor count (dose: 64.0 mg/kg/injection, schedule: Q01DX001 (oral), vehicle: saline): 8 of 8
- survivor count (dose: 64.0 mg/kg/injection, schedule: Q01DX001 (sc), vehicle: acid diluted with saline): 8 of 8
- survivor count (dose: 64.0 mg/kg/injection, schedule: Q01DX005 (ip), vehicle: acid diluted with saline): 4 of 8
- survivor count (dose: 64.0 mg/kg/injection, schedule: Q01DX005 (ip), vehicle: saline): 7 of 8
- survivor count (dose: 64.0 mg/kg/injection, schedule: Q01DX005 (iv), vehicle: saline): 0 of 8
- survivor count (dose: 64.0 mg/kg/injection, schedule: Q01DX009 (ip), vehicle: acid diluted with saline): 8 of 8
- survivor count (dose: 64.0 mg/kg/injection, schedule: Q01DX009 (ip), vehicle: saline): 8 of 8
- survivor count (dose: 64.0 mg/kg/injection, schedule: Q01DX009 (oral), vehicle: acid diluted with saline): 8 of 8
- survivor count (dose: 64.0 mg/kg/injection, schedule: Q01DX009 (oral), vehicle: saline): 8 of 8
- survivor count (dose: 64.0 mg/kg/injection, schedule: Q01DX009 (sc), vehicle: acid diluted with saline): 8 of 8
- survivor count (dose: 64.0 mg/kg/injection, schedule: Q01DX009 (sc), vehicle: saline): 5 of 8
- survivor count (dose: 64.0 mg/kg/injection, schedule: Q03HX008 (ip), vehicle: acid diluted with saline): 0 of 8
- survivor count (dose: 64.0 mg/kg/injection, schedule: Q04DX003 (ip), vehicle: acid diluted with saline): 8 of 8
- survivor count (dose: 64.0 mg/kg/injection, schedule: Q04DX003 (ip), vehicle: saline): 8 of 8
- survivor count (dose: 64.0 mg/kg/injection, schedule: Q08DX002 (ip), vehicle: acid diluted with saline): 8 of 8
- survivor count (dose: 64.0 mg/kg/injection, schedule: Q08DX002 (ip), vehicle: saline): 8 of 8
- survivor count (dose: 128.0 mg/kg/injection, schedule: Q01DX001 (ip), vehicle: acid diluted with saline): 7 of 8
- survivor count (dose: 128.0 mg/kg/injection, schedule: Q01DX001 (ip), vehicle: saline): 4 of 8
- survivor count (dose: 128.0 mg/kg/injection, schedule: Q01DX001 (oral), vehicle: acid diluted with saline): 8 of 8
- survivor count (dose: 128.0 mg/kg/injection, schedule: Q01DX001 (oral), vehicle: saline): 8 of 8
- survivor count (dose: 128.0 mg/kg/injection, schedule: Q01DX001 (sc), vehicle: acid diluted with saline): 8 of 8
- survivor count (dose: 128.0 mg/kg/injection, schedule: Q01DX005 (ip), vehicle: acid diluted with saline): 1 of 8
- survivor count (dose: 128.0 mg/kg/injection, schedule: Q01DX005 (iv), vehicle: saline): 0 of 8
- survivor count (dose: 128.0 mg/kg/injection, schedule: Q01DX009 (oral), vehicle: acid diluted with saline): 8 of 8
- survivor count (dose: 128.0 mg/kg/injection, schedule: Q01DX009 (oral), vehicle: saline): 8 of 8
- survivor count (dose: 128.0 mg/kg/injection, schedule: Q04DX003 (ip), vehicle: acid diluted with saline): 2 of 8
- survivor count (dose: 128.0 mg/kg/injection, schedule: Q04DX003 (ip), vehicle: saline): 3 of 8
- survivor count (dose: 128.0 mg/kg/injection, schedule: Q08DX002 (ip), vehicle: acid diluted with saline): 4 of 8
- survivor count (dose: 128.0 mg/kg/injection, schedule: Q08DX002 (ip), vehicle: saline): 6 of 8
- survivor count (dose: 256.0 mg/kg/injection, schedule: Q01DX001 (ip), vehicle: acid diluted with saline): 2 of 8
- survivor count (dose: 256.0 mg/kg/injection, schedule: Q01DX001 (oral), vehicle: acid diluted with saline): 8 of 8
- survivor count (dose: 256.0 mg/kg/injection, schedule: Q01DX001 (oral), vehicle: saline): 8 of 8
- survivor count (dose: 256.0 mg/kg/injection, schedule: Q01DX001 (sc), vehicle: acid diluted with saline): 8 of 8
- survivor count (dose: 256.0 mg/kg/injection, schedule: Q01DX009 (oral), vehicle: acid diluted with saline): 8 of 8
- survivor count (dose: 256.0 mg/kg/injection, schedule: Q01DX009 (oral), vehicle: saline): 8 of 8
- survivor count (dose: 256.0 mg/kg/injection, schedule: Q04DX003 (ip), vehicle: acid diluted with saline): 1 of 8
- survivor count (dose: 256.0 mg/kg/injection, schedule: Q08DX002 (ip), vehicle: acid diluted with saline): 1 of 8
- survivor count (dose: 512.0 mg/kg/injection, schedule: Q01DX001 (ip), vehicle: acid diluted with saline): 0 of 8
- survivor count (dose: 512.0 mg/kg/injection, schedule: Q01DX001 (oral), vehicle: acid diluted with saline): 8 of 8
- survivor count (dose: 512.0 mg/kg/injection, schedule: Q01DX001 (oral), vehicle: saline): 7 of 8
- survivor count (dose: 512.0 mg/kg/injection, schedule: Q01DX001 (sc), vehicle: acid diluted with saline): 1 of 8
- survivor count (dose: 1024.0 mg/kg/injection, schedule: Q01DX001 (oral), vehicle: acid diluted with saline): 8 of 8
